Source: patent US9421263B2, “Antimicrobial compositions containing synergistic combinations of quaternary ammonium compounds and essential oils and/or constituents thereof” (THE TRUSTEES OF COLUMBIA UNIVERSITY IN THE CITY OF NEW YORK, priority 2003, dated 2016)

Test system: S. aureus
Assay: Evaluation of rapid antimicrobial activity in presence of serum (S. aureus)
Format: cell-based
Experimental: Evaluation of Rapid Antimicrobial Activity in Presence of Serum.
To determine the efficacy of the antimicrobial composition on the skin, which may be contaminated with blood or other proteinaceous fluids containing bacteria, the antimicrobial activity was evaluated in the presence of serum as follows. Briefly, 0.5 ml of 10^8 CFU of S. aureus/ml was added to 0.5 ml of bovine adult serum in a sterile culture tube and mixed. 0.5 ml of the test formulation was added to each tube and vortexed. After 15 seconds, it was further diluted 1:100 with drug inactivating media (LTSB) and 0.5 ml was plated on a TSA plate. The plates were incubated at 37° C. for 24 hours and the colony count per ml of culture was determined.

## CC(C)(C)CC(C)(C)c1ccc(OCCOCC[N+](C)(C)Cc2ccccc2)cc1 [BZT, benzethonium chloride]
Example 6, Table 6, % w/w
  whether farnesol shows synergy with or enhances the antimicrobial agent, in words: shows synergy
Example 6, Table 7, molar proportions
  whether farnesol shows synergy with or enhances the antimicrobial agent, in words: synergistic antimicrobial activity
